Laboratory results: patent US20200181284A1, “EPIGENETIC INHIBITORS FOR SENSITIZING HEMATOLOGIC OR OTHER MALIGNANCIES TO GLUCOCORTICOID THERAPY” (UNIVERSITY OF SOUTHERN CALIFORNIA, priority 2017, published 2020)
Results are given in words; binding and its absence hold for the method and conditions named. Binding seen in cells or lysates may run through a third protein. Some entries that bind do so weakly or less than the wild type.

By UniProt entry, the sequences of proteins in these tests, tags left out. Where a name states a change or a piece, a line headed by the entry shows the natural chain unless it says otherwise. Residues count along the entry.
UniProt Q96KQ7: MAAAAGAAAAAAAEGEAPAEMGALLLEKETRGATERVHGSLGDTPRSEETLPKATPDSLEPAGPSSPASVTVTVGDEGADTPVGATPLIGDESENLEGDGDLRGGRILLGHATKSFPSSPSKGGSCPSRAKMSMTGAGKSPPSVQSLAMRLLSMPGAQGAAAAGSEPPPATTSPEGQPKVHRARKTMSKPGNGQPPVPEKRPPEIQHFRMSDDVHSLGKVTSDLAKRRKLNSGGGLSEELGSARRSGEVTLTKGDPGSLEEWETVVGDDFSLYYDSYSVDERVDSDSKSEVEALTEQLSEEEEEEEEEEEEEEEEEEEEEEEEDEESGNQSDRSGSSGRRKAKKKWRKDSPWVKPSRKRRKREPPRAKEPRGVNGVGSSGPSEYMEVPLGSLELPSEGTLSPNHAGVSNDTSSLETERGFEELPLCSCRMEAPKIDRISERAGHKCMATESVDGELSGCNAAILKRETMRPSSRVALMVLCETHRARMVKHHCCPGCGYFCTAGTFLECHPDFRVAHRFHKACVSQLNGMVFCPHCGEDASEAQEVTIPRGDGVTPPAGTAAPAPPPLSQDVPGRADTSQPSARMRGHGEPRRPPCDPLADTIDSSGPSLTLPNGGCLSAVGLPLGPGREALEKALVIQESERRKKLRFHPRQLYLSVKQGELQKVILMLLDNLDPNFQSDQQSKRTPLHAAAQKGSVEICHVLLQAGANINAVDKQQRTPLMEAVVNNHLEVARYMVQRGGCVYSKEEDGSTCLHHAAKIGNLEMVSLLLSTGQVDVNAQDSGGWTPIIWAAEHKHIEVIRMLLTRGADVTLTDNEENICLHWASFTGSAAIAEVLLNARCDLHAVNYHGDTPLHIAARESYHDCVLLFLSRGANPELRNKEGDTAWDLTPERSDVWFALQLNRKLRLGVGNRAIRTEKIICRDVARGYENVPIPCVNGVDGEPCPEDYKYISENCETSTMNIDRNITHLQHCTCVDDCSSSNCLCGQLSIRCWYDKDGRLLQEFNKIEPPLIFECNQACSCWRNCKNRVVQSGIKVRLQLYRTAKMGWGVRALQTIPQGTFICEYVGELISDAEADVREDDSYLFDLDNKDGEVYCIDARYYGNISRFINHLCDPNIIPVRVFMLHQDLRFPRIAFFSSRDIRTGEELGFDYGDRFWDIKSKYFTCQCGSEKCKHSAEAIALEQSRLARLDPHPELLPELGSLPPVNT
UniProt Q9H9B1: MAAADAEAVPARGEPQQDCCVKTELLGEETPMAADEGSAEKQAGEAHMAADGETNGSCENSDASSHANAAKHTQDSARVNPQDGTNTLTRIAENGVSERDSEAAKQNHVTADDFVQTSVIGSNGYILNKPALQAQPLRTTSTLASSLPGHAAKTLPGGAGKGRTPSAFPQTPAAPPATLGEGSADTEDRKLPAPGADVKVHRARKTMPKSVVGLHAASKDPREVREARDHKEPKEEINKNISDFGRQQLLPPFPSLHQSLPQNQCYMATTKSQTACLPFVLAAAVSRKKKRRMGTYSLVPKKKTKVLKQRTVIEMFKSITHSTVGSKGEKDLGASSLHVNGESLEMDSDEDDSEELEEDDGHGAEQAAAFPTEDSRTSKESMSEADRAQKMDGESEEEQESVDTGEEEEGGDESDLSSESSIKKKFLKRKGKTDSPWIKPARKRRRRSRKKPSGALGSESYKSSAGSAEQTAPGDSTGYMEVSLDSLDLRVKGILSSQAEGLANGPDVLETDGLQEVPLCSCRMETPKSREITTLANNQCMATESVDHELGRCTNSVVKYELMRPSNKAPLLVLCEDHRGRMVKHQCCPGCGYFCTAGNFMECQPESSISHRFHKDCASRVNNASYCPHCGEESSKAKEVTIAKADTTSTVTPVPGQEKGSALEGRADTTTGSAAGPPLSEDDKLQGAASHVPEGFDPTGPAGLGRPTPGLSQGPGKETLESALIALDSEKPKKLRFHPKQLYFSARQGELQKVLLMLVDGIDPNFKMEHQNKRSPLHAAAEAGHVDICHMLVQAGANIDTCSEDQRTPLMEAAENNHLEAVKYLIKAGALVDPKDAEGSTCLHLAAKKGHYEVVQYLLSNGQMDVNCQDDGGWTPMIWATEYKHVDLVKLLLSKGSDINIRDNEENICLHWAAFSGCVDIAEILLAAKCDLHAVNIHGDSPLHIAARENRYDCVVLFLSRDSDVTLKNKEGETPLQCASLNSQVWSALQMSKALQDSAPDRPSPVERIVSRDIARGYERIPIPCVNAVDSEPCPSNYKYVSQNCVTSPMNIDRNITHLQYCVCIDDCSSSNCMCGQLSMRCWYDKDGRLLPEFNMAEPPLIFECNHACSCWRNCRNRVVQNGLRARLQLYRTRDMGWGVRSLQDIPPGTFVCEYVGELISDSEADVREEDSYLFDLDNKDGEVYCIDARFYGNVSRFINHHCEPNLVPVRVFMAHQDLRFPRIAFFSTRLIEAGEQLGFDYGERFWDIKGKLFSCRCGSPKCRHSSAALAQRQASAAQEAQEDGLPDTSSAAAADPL
endogenous GLP of A549 cells: residues 2-1298 of Q9H9B1
UniProt Q61026, residues 5-1462: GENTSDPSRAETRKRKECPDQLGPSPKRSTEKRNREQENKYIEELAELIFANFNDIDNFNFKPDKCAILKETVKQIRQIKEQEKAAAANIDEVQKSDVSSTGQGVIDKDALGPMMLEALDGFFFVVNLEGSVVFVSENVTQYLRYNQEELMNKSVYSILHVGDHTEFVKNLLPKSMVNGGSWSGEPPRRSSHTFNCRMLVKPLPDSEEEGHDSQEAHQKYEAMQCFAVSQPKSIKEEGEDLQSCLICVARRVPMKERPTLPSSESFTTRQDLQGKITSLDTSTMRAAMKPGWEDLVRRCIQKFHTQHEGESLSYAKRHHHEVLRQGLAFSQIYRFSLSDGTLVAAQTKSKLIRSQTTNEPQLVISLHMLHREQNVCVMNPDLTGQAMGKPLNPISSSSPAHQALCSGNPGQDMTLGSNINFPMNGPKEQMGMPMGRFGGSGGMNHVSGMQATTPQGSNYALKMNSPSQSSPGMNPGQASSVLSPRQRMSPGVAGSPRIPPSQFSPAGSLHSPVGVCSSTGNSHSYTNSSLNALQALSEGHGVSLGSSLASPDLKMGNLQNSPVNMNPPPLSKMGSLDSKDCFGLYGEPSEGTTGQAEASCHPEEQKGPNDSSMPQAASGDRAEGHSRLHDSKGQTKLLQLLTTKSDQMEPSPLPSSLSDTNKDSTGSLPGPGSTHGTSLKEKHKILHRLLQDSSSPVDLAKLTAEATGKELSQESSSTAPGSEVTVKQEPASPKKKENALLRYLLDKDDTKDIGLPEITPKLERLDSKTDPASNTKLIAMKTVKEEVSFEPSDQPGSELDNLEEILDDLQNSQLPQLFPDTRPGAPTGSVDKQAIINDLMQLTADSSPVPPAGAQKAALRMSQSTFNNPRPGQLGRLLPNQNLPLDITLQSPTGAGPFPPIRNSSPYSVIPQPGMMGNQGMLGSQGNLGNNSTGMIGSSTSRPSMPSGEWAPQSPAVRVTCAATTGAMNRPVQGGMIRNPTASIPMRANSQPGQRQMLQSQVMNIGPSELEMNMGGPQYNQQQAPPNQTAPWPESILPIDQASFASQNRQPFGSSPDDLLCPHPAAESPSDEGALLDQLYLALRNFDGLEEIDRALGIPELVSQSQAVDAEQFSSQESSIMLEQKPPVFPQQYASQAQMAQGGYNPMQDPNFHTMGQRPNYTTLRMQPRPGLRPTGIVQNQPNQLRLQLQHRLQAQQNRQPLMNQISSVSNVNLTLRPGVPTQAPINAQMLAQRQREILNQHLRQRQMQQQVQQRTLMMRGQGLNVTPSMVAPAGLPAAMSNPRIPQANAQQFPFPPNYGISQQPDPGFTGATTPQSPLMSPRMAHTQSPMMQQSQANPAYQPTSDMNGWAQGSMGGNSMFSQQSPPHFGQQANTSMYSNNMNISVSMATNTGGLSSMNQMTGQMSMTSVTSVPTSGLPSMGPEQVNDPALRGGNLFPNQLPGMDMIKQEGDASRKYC
UniProt Q13185, residues 2-183: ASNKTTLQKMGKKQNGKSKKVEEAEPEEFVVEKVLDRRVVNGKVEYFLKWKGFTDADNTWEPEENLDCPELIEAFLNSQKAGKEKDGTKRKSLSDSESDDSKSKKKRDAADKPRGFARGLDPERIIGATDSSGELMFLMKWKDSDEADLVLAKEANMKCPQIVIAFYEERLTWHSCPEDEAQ
UniProt P04150: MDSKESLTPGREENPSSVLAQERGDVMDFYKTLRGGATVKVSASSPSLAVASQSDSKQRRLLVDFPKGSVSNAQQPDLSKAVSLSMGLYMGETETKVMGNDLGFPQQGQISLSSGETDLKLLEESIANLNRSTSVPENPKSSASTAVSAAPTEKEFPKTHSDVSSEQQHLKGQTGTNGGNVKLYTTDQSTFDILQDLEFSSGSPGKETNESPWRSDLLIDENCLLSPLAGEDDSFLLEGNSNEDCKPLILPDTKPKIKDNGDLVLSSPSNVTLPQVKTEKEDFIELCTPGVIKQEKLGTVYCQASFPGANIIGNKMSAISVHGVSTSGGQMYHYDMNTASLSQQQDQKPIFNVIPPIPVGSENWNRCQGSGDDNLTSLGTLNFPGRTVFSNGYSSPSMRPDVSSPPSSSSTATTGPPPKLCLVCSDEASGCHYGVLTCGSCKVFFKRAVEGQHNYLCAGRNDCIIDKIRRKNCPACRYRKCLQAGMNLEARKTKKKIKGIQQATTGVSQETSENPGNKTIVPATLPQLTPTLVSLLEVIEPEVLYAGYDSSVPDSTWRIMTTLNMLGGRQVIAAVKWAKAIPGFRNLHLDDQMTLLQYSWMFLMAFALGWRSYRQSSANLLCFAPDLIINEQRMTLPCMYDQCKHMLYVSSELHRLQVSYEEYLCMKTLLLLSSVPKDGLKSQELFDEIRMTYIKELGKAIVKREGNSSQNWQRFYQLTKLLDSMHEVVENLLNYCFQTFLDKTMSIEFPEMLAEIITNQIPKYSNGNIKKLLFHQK

Assays:
[1] = target: full length flag-hG9a K185R mutant (human) (UniProt Q96KQ7); assay: co-immunoprecipitation with HA antibody from Cos-7 lysates, flag blot
[2] = target: full length flag-hG9a wild type (human) (UniProt Q96KQ7); assay: as above
[3] = target: full length HA-hGLP K205R mutant (human) (UniProt Q9H9B1); assay: proximity ligation assay (HA and HP1γ antibodies), A549 rtta cells; weaker than wild type
[4] = target: full length HA-hGLP wild type (human) (UniProt Q9H9B1); assay: proximity ligation assay (HA and HP1γ antibodies), A549 rtta cells
[5] = target: full length HA-hG9a K185R mutant (human) (UniProt Q96KQ7); assay: co-immunoprecipitation with GR antibody from Cos-7 lysates, HA blot
[6] = target: HA-hG9a K185A mutant (human) (UniProt Q96KQ7); assay: as above
[7] = target: endogenous GLP of A549 cells (human) (UniProt Q9H9B1); assay: co-immunoprecipitation of endogenous proteins from A549 lysates, anti-GLP IP, anti-GR blot

With HA-Grip1 (from UniProt Q61026 5-1462) the binding [1] was “binds” and the binding [2] was “binds”.

With “heterochromatin protein 1 gamma (HP1γ), endogenous protein of A549 cells (from UniProt Q13185 2-183)” the binding [3] was “binds” and the binding [4] was “binds”.

With “glucocorticoid receptor (GR) (from UniProt P04150 1-777)” the binding [5] was “binds”, the binding [6] was “binds” and the binding [7] was “binds”.
